Counter-ions that a name gives are not always drawn.

The chains behind the UniProt entries cited, without tags or fusion partners.
UniProt P33261, whole entry: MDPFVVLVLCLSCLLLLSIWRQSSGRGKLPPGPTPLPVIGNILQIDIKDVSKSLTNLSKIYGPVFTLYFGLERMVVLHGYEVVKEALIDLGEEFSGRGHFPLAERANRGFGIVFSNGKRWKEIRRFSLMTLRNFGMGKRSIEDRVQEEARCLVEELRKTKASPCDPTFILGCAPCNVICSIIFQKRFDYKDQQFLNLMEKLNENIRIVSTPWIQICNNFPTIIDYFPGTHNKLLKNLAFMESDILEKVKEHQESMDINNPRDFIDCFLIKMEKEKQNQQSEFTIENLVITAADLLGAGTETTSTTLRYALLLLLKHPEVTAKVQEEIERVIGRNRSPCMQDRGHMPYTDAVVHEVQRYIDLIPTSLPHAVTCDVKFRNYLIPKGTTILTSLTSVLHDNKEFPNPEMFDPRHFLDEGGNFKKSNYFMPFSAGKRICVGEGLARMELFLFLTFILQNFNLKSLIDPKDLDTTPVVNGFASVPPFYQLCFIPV

Data on one compound can be found in article PMC12155096 (International Journal of Molecular Sciences, 2025).

The target of the assay is human CYP2C19 (Homo sapiens, UniProt P33261).

On to `COc1cc2c(cc1OC)C(=O)C(CC1CCN(Cc3ccccc3)CC1)C2` (stereo not shown) [Donepezil hydrochloride], for which the “CYP2C19 AC50 (half-maximal activity concentration)” value is listed as “Inconclusive activator”.
